The target in assay [1] is p53 (53kDa tumor protein), endogenous (human (endogenous in U2OS, HCT116 p53+/+, MCF-7)) (UniProt P04637). Kind of assay: FRET or BRET. In general terms: Bioluminescence resonance energy transfer reports proximity on the nanometre scale.
The target in another assay is p53-DsRed Ex (UniProt P04637). Kind of assay: FRET or BRET.
The target of assay [2] is p53 (53kDa tumor protein), endogenous (human (endogenous in U2OS, HCT116 p53+/+, MCF-7)) (UniProt P04637). Kind of assay: native gel or EMSA. (In general: Mobility shift assays separate free from complexed probe on a gel.)

The text below walks through data of article doi:10.1101/841668.

These are yes or no findings as the source states them, for the method shown. For part of these data: Binding seen in cells or lysates may run through a third protein. Some entries that bind do so weakly or less than the wild type.

In the case of EYFP-HIF-1β (from UniProt P27540 1-789), the binding result (in assay [1]; in the assay with p53-DsRed Ex) was “binds” each time.
Consider “Hypoxia-inducible factor-1 beta (HIF-1β), endogenous (from UniProt P27540 1-789)”, for which the binding result in assay [2] is given as “binds”.
